{
  "source": "patent US20040029773A1",
  "about": "“Use of 1-ebio in the treatment of bipolar disorders” (priority 2000, published 2004)",
  "origin": "cited, not measured here",
  "tested_on": "amphetamine/chlordiazepoxide-induced hyperactivity in mice",
  "details": "previous validation studies (literature); cited from earlier work",
  "note": "For at least one compound, name, drawing or mass did not settle the structure.",
  "data": [
    {"smiles": "[Li]", "note": "[lithium]", "values": [
      {"measurement": "behaviour induced by amphetamine plus chlordiazepoxide", "value": "can be ameliorated"}
    ]}
  ]
}
